Measured values taken from PMC8596765 (Clinical Pharmacology in Drug Development, 2021).

What was measured:
[1] = cited from earlier work
clinical = settings: human, plasma, po, 10 mg

Cmax (clinical): 1.67 ± 0.828 ng/mL
SMILES: CC(C)c1c(C(=O)Nc2ccccc2)c(-c2ccccc2)c(-c2ccc(F)cc2)n1CC[C@@H](O)C[C@@H](O)CC(=O)O [atorvastatin]
Intrasubject variability in plasma exposures [1]: ~45%
